From patent EP2303911B1, “A SYNTHETIC PEPTIDE CONSISTING OF BONE FORMING PEPTIDE 2(BFP 2) FOR STIMULATING OSTEOBLAST DIFFERENTIATION, AND PHARMACEUTICAL COMPOSITION COMPRISING THE SYNTHETIC PEPTIDE” (Industry Foundation Of Chonnam National University, priority 2008, dated 2012)
Not every detail of the peptide structures is certain; ends, links or a residue may be inferred. No end group written: not given here.

Columns and labels:
CD44 = assay: Expression of the surface marker CD44 under a fluorescence microscope; type: cell-based, mouse; settings: fluorescence microscopy; ODM with BFP 2 versus ODM alone; FIG. 7
[1] = tested on: CD44, CD51, CD47 and CD45; assay: FACS analysis of the expression of osteoblast-specific surface proteins; type: cell-based, mouse; settings: FIG. 6
Runx-2 = assay: Expression of the osteoblast-specific Runx-2 gene, fluorescence microscopy; type: cell-based, mouse; settings: 0.1 µg/ml of BFP 2 versus 0.1 µg/ml of BMP-7; FIG. 9
[2] = tested on: osteoblast-specific alkaline phosphatase (ALP) and calcium; assay: Concentrations of alkaline phosphatase (ALP) and calcium measured with a commercially available diagnostic kit; type: cell-based, mouse; settings: 1 µg/ml, FIG. 8
mesenchymal stem cells = assay: Chemotaxis assay, cell migration during differentiation from mesenchymal stem cells to osteoblasts; type: cell-based, mouse; settings: ODM supplemented with BFP 2 versus BMP-7; FIG. 10
[3] = tested on: osteocalcin and alkaline phosphatase; assay: Expression of osteoblast-specific osteocalcin and alkaline phosphatase, fluorescent antibodies, fluorescence microscopy; type: cell-based, mouse; settings: FIG. 5
[4] = tested on: Mesenchymal stem cells (cloned from Balb/c mouse bone marrow stromal cells); assay: Assay for mineralization by alizarin red staining during osteoblast differentiation; type: cell-based; settings: cells treated with BFP 2 versus cells treated with BMP-7; FIG. 4
[5] = ODM supplemented with BFP 2 versus ODM alone

VEHDKEFFHPRYHHR [BFP 2, Val-Glu-His-Asp-Lys-Glu-Phe-Phe-His-Pro-Arg-Tyr-His-His-Arg]
expression of CD44 (anti-CD44 antibody staining) (CD44): Higher levels of CD44 were detected | expression of CD44 ([1]; 1 µg/ml in an osteogenic differentiation medium): expressed at a higher level | expression of CD44 ([1]; ODM + BFP 2 versus ODM alone): induce the expression of CD44 | expression of CD47 [1, 5]: expressed at higher levels | expression of CD51 [1, 5]: expressed at higher levels | expression level of Runx-2 (Runx-2): higher expression level | level of ALP [2]: Significant increases | level of calcium [2]: Significant increases | cell migration (chemotaxis) (mesenchymal stem cells): more cells were observed to migrate | osteocalcin expression ([3]; ODM supplemented with 1 µg/ml, versus ODM alone or ODM supplemented with BMP-7): expressed at a higher level | alkaline phosphatase expression ([3]; in the presence of 1 µg/ml): expressed at higher levels | alizarin red staining (calcium accumulation, mineralization) compared with BMP-7 [4]: more intense colors
